Experimental data from PubChem BioAssay AID1347075 (National Center for Advancing Translational Sciences (NCATS), 2019).
Out of some 400,000 compounds screened, about 5,500 (1.4%) were called active. The inconclusive results got no clear call from the source; some entries with a clear call stand among them for comparison. Calls come from the whole dose curve; as a rule, active = well fitted cell-killing curve with a large enough effect; inconclusive = small, poorly fitted or top-dose-only effect, or effect the other way; inactive = flat fitted curve, though single readings scatter. Where the call is inconclusive, the potency comes from a doubtful curve fit.

Assay: qHTS assay for MDR1-selective chemotherapeutics: Primary screen using the parental adenocarcinoma cell KB-3-1; note: nearly all actives have a fitted effect of over 60% in size
Settings: KB-3-1 viability, CellTiter-Glo ATP luminescence, 72 h; activity change, negative = cytotoxic: at 46.1 µM (top of the series)
In short: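 Screening of KB-3-1 cells (DMEM, 10% FBS, phenol-red free) ran from lowest to highest compound concentration; after 72 h at 37 °C viability was read luminescently and curves fitted.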
% is set by controls: 0 for no effect and ±100 for the full control effect; potency is the fitted concentration of half-maximal effect.

| SMILES | Potency | activity change, negative = cytotoxic |
| --- | --- | --- |
| CCc1cccc(CC)c1NC(=O)/C(C#N)=C/c1ccccc1C(F)(F)F | inconclusive: 29.1 µM [cytotoxic, single point] |  |
| CCCC(=O)N1CCN(c2ccc(NC(=O)c3ccc([N+](=O)[O-])o3)cc2Cl)CC1 | inconclusive: 23.1 µM [cytotoxic, single point] |  |
| O=C1N(c2ccccc2)C[C@@H]2C[C@@H](c3cc4ccccc4o3)N3CCC[C@@]123 | inconclusive: 0.58 µM [cytotoxic, full curve, poor fit] |  |
| CCN(Cc1ccccc1)S(=O)(=O)c1ccc(N2CCCCS2(=O)=O)cc1 | inconclusive: 20.6 µM [cytotoxic, partial curve, poor fit] |  |
| O=C(Nc1ccc(C(=O)N2CCCC2)cc1)c1ccccc1 | inconclusive: 29.1 µM [cytotoxic, single point] |  |
| Cc1ccc(NC(=O)C2CCCN(S(=O)(=O)c3ccc4c(c3)CCCC(=O)N4)C2)cc1N(C)C (stereo not drawn) | inconclusive: 29.1 µM [cytotoxic, partial curve, poor fit] |  |
| Cc1ccc(C)c(NC(=O)Cn2c(=O)n(CCCS(=O)(=O)C3CCCCC3)c(=O)c3ccccc32)c1 | inconclusive: 23.1 µM [cytotoxic, partial curve, poor fit] |  |
| COc1ccc(Cl)cc1C(=O)NCC(c1ccc(N(C)C)cc1)N1CCCC1 (stereo not drawn) |  | inconclusive: -14.6% |
| Cc1[nH]c(=O)[nH]c(=O)c1NC(=O)c1sc2nc3c(C)cccc3cc2c1N | inconclusive: 29.1 µM [rising, single point] |  |
| CC(C)c1cccc(NC(=O)COC(=O)c2ccccc2OCc2cccc(Br)c2)c1 | inconclusive: 20.6 µM [rising, partial curve, poor fit] |  |
| COc1ccccc1-c1noc2c1C(=O)N(Cc1cn(-c3ccc(Cl)cc3)nn1)CC2 | inconclusive: 3.66 µM [cytotoxic, partial curve, poor fit] |  |
| Cc1cccc2cc(CN(Cc3cccnc3)C(=S)NCCCN(C)C)c(=O)[nH]c12 |  | inactive: 7.44% |
| COc1ccc(NC(=O)CN2CCN(C3c4ccccc4-c4ccccc43)CC2)c(OC)c1 | inconclusive: 29.1 µM [cytotoxic, single point] |  |
| CCCn1c(-c2ccc(OC)cc2)nc2ccccc21 | inconclusive: 23.1 µM [cytotoxic, single point] |  |
| COc1cccc(NC(=O)c2ccccc2-c2nc(-c3ccc(Cl)cc3)no2)c1 | inconclusive: 29.1 µM [cytotoxic, single point] |  |
| CS(=O)(=O)N1CCCC(C(=O)Nc2ccc(F)c(F)c2)C1 (stereo not drawn) |  | inactive: -18.9% |
| O=C1CC(c2ccccc2)(c2ccccc2)c2ccccc21 | inconclusive: 1.84 µM [cytotoxic, full curve] |  |
| O=C(Cn1cncn1)NCc1cccc(C(F)(F)F)c1 |  | inactive: -0.758% |
| Cc1ncsc1CCOC(=O)c1cccc([N+](=O)[O-])c1 | inconclusive: 29.1 µM [rising, single point] |  |
| Cc1ccc(-n2nc(C)c(=O)c(-c3ccccc3)c2NC(=O)C(C)C)cc1 |  | inactive: 14.3% |
| S=c1[nH]c2cc3ccccc3cc2[nH]1 | inconclusive: 4.11 µM [cytotoxic, full curve, poor fit] |  |
| CCn1nc(C)cc1C(=O)NC1CCCc2c1cnn2-c1cc(F)cc(F)c1 (stereo not drawn) | inconclusive: 14.6 µM [cytotoxic, partial curve] |  |

| SMILES | Potency | activity change, negative = cytotoxic |
| --- | --- | --- |
| COc1ccc(C2=NC(C(F)(F)F)(C(F)(F)F)c3c(n(C)c(=O)n(C)c3=O)N2)cc1 | inconclusive: 11.6 µM [cytotoxic, single point] |  |
| C/C(=N\NC(=O)C(C)n1nc(C)c([N+](=O)[O-])c1C)c1ccccc1O (stereo not drawn) | inconclusive: 13 µM [cytotoxic, partial curve, poor fit] |  |
| O=C(CN(C(=O)CCC(=O)Nc1nccs1)C1CCCC1)NCc1ccc2c(c1)OCO2 |  | inactive: -0.221% |
| Cc1ccc2c(c1)c1c(c(=O)n(-c3ccccc3)c(=O)n1CC(=O)c1ccc(Cl)cc1)n2C |  | inactive: 5.37% |
| CN(C(=O)CSc1nc2ccc(NC(=O)c3cccs3)cc2s1)c1ccccc1 |  | inactive: -10.4% |
| Nc1nc(-c2cccc(NS(=O)(=O)c3ccccc3)c2)cs1 |  | inactive: -1.43% |
| COC(=O)Cc1ccc(NC(=S)Nc2cccc(C)n2)cc1 | inconclusive: 29.1 µM [cytotoxic, single point] |  |
| Clc1ccc(CN2CCN(c3ncnc4scc(-c5cccs5)c34)CC2)cc1 | inconclusive: 16.4 µM [cytotoxic, single point] |  |
| CCc1ccc(CNC(=O)C2CCN(C(=O)c3ccc(-n4c(C)cc5ccccc54)s3)CC2)cc1 | inconclusive: 20.6 µM [cytotoxic, partial curve] |  |
| COC(=O)Cc1ccc(OC(=O)C2CCN(S(=O)(=O)c3ccc(OC)c(OC)c3)CC2)cc1 | inconclusive: 20.6 µM [rising, partial curve, poor fit] |  |
| CCCCCCc1cc2cc(-c3nnc(-c4ccccc4OC)o3)c(=O)oc2cc1O | inconclusive: 29.1 µM [cytotoxic, single point] |  |
| O=c1[nH]c(C2CCN(S(=O)(=O)Cc3ccccc3)CC2)nc2c1nnn2Cc1cccc(Cl)c1 |  | inactive: -1.94% |
| Cc1cccc(OCCCCc2c(C)n[nH]c2C)c1C | inconclusive: 29.1 µM [cytotoxic, partial curve, poor fit] |  |
| CCOc1cc(N2CCOCC2)c(OCC)cc1NC(=O)c1ccccc1C |  | inactive: -8.99% |
| N=C1SCC(=O)N1/N=C/c1ccccc1 | active: 7.31 µM |  |
| Cn1c(SCC(=O)c2ccccc2)nnc1-c1cccs1 |  | inactive: 21.4% |
| O=C(NCCCc1nc2ccccc2n1CCCOc1ccccc1)C1CCCCC1 |  | inactive: -18.6% |
| O=c1cc(-c2ccc(O)cc2)oc2ccc3ccccc3c12 | inconclusive: 29.1 µM [cytotoxic, single point] |  |
| Cc1cc(C(=O)CCl)c(C)n1-c1cccc([N+](=O)[O-])c1 | active: 16.4 µM |  |
| CC(C)(C)c1ccc(CC(=O)N2CCC2(C)C(=O)NCc2ccc(Cl)cc2)cc1 (stereo not drawn) | inconclusive: 16.4 µM [cytotoxic, single point] |  |
| Cc1cc2ccccn2c1C(=O)c1ccc([N+](=O)[O-])o1 | inconclusive: 20.6 µM [cytotoxic, single point] |  |

3 entries already listed, sorted by formula weight, low to high.

| SMILES | Potency | activity change, negative = cytotoxic |
| --- | --- | --- |
| O=c1cc(-c2ccc(O)cc2)oc2ccc3ccccc3c12 | inconclusive: 29.1 µM [cytotoxic, single point] |  |
| C/C(=N\NC(=O)C(C)n1nc(C)c([N+](=O)[O-])c1C)c1ccccc1O (stereo not drawn) | inconclusive: 13 µM [cytotoxic, partial curve, poor fit] |  |
| O=C(CN(C(=O)CCC(=O)Nc1nccs1)C1CCCC1)NCc1ccc2c(c1)OCO2 |  | inactive: -0.221% |
